Taken from: PubChem BioAssay AID686938 (Drosophila RNAi Screening Center, 2013)

- Assay: 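Knock-downs reducing store-operated calcium influx in Drosophila cells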 (primary screen)
- Cells: Drosophila S2R+ cells
- Reagents: long dsRNA against Drosophila genes, about 0.25 µg dsRNA per well, roughly 10,000 cells
- Timing: 5 days of knock-down before the calcium assay
- Conditions: thapsigargin (SERCA pump blocker) to empty calcium stores; entry signal taken 4 min after adding it
- Detection: 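Per-well fluo-4 fluorescence in two replicates, unnormalised, measured in resting cells and 4 min after store depletion by the SERCA blocker thapsigargin; ratio of the two present in few wells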
- Reading the numbers: calcium entry signal: higher = stronger calcium signal after store depletion; resting calcium signal: higher = higher resting calcium signal
- Hit rule: 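Called when the plate z-score of the entry-to-rest ratio, mean of duplicates, falls below −3; wells with low overall dye signal (Fmax z below −2) or more than five off-targets excluded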
- Meaning of the calls: active = strongly reduced calcium entry; inactive = no strong reduction
The deposit covers about 23,000 reagents; below is a random part of those that have a named target and a result. Over the whole deposit, 75 (0.33%) were called active. 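Raw plate signals without normalisation; calls rest on plate z-scores that were not deposited; ratio present for only 364 wells.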 Names joined by + are all predicted targets of the reagent. Not given: the dose of the treatment.

Target gene	DRSC id	calcium entry signal, replicate 1 (fluorescence units)	calcium entry signal, replicate 2 (fluorescence units)	resting calcium signal, replicate 1 (fluorescence units)	resting calcium signal, replicate 2 (fluorescence units)	Call
Prp4k (GeneID 38032)	DRSC08144	3.53e7	3.06e7	1.64e7	1.55e7	inactive
Art7 (GeneID 37664)	DRSC04588	4.84e7	5.23e7	2.46e7	2.32e7	inactive
Cypl (GeneID 38069)	DRSC08362	4.39e7	4.52e7	2.22e7	2.07e7	inactive
FucTB (GeneID 34260)	DRSC02745	2.86e7	4.61e7	1.40e7	1.86e7	inactive
CG42748 (GeneID 35442)	DRSC03712	3.71e7	5.59e7	2.01e7	2.36e7	inactive
CG42748 (GeneID 35442)	DRSC03713	4.18e7		2.11e7		inactive
CG42748 (GeneID 35442)	DRSC03734	4.44e7	5.99e7	2.36e7	2.31e7	inactive
Prosbeta5 (GeneID 45269)	DRSC07517	2.18e7	3.60e7	1.55e7	1.64e7	inactive
CG3500 (GeneID 37697)	DRSC04379	3.41e7	3.90e7	1.80e7	1.85e7	inactive
Indy (GeneID 40049)	DRSC10393	4.10e7	4.49e7	1.98e7	3.12e7	inactive
CG3184 (GeneID 31608)	DRSC18289	3.67e7	4.02e7	1.71e7	1.86e7	inactive
Cpr64Ad (GeneID 38511)	DRSC08284	4.18e7	4.04e7	2.04e7	1.80e7	inactive
Obp57e (GeneID 326110)	DRSC05891	2.27e7	4.55e7	1.16e7	2.11e7	inactive
Syn1 (GeneID 40424)	DRSC11803	3.33e7	4.76e7	1.62e7	2.26e7	inactive
Syn1 (GeneID 40424)	DRSC11804	3.31e7	5.32e7	1.56e7	2.38e7	inactive
Or19b + Or19a	DRSC22604	3.89e7	4.13e7	2.41e7	1.93e7	inactive
MtnF (GeneID 12798528)	DRSC13683	4.56e7	3.98e7	1.94e7	2.09e7	inactive
Paip1 (GeneID 36913)	DRSC07302	4.64e7	4.46e7	2.40e7	2.45e7	inactive
Tbcb (GeneID 37244)	DRSC06067	3.52e7	3.14e7	1.66e7	1.56e7	inactive

Continued, starting with the last 5 of the part before.
Target gene	DRSC id	calcium entry signal, replicate 1 (fluorescence units)	calcium entry signal, replicate 2 (fluorescence units)	resting calcium signal, replicate 1 (fluorescence units)	resting calcium signal, replicate 2 (fluorescence units)	Call
Syn1 (GeneID 40424)	DRSC11804	3.31e7	5.32e7	1.56e7	2.38e7	inactive
Or19b + Or19a	DRSC22604	3.89e7	4.13e7	2.41e7	1.93e7	inactive
MtnF (GeneID 12798528)	DRSC13683	4.56e7	3.98e7	1.94e7	2.09e7	inactive
Paip1 (GeneID 36913)	DRSC07302	4.64e7	4.46e7	2.40e7	2.45e7	inactive
Tbcb (GeneID 37244)	DRSC06067	3.52e7	3.14e7	1.66e7	1.56e7	inactive
Atac1 (GeneID 33977)	DRSC03155	3.81e7	3.78e7	1.67e7	1.75e7	inactive
Sgs5 (GeneID 42114)	DRSC16862	3.02e7	6.34e7	1.79e7	7.21e7	inactive
CG6421 (GeneID 46813)	DRSC07420	3.18e7	2.86e7	1.37e7	1.43e7	inactive
Ir7c (GeneID 31692)	DRSC18007	3.32e7	3.12e7	1.59e7	1.41e7	inactive
CG34382 (GeneID 5740788)	DRSC08999	2.94e7	4.44e7	1.49e7	1.99e7	inactive
CG34382 (GeneID 5740788)	DRSC10166	3.14e7	4.07e7	1.65e7	1.83e7	inactive
CG34382 (GeneID 5740788)	DRSC10167	3.53e7	4.94e7	1.73e7	1.92e7	inactive
CG8209 (GeneID 38888)	DRSC10970	3.74e7	4.26e7	1.85e7	2.09e7	inactive
tsr (GeneID 37841)	DRSC04718	2.84e7	2.21e7	2.24e7	1.72e7	active
CG33287 (GeneID 2768986)	DRSC22929	2.96e7	2.70e7	1.68e7	1.30e7	inactive
CG17266 (GeneID 35571)	DRSC04979	4.10e7	3.87e7	1.94e7	1.86e7	inactive
CG17266 (GeneID 35571)	DRSC22368	3.83e7	4.03e7	1.67e7	2.24e7	inactive
Sgs5bis (GeneID 42113)	DRSC16263	3.35e7	6.95e7	1.76e7	5.74e7	inactive
Ccp84Af (GeneID 40820)	DRSC12591	4.48e7	3.32e7	1.71e7	1.44e7	inactive
CG14606 (GeneID 40866)	DRSC12550	4.71e7	3.63e7	2.32e7	1.67e7	inactive
CG34008 (GeneID 3885577)	DRSC13428	3.23e7	2.36e7	1.69e7	1.22e7	inactive
PH4alphaEFB (GeneID 43620)	DRSC14473	3.23e7	4.40e7	1.55e7	1.95e7	inactive
PH4alphaEFB (GeneID 43620)	DRSC14950	3.61e7	4.29e7	1.90e7	1.75e7	inactive
CG8492 (GeneID 38866)	DRSC10984	2.62e7	4.99e7	1.31e7	2.25e7	inactive
CG8492 (GeneID 38866)	DRSC21804	4.51e7	3.07e7	2.49e7	1.42e7	inactive
nerfin-2 (GeneID 41235)	DRSC14547	2.68e7	2.39e7	1.41e7	1.27e7	inactive
